# Assay results taken from patent US7064206B1 (University of Kentucky Research Foundation, priority 2003, dated 2006).
# Assay: Active loading into premade liposomes by ammonium sulfate gradient
# Conditions: underivatized drug
row,Compound,localization in the liposome
1,"CC[C@@]1(O)C(=O)OCc2c1cc1n(c2=O)Cc2c-1nc1ccc(O)cc1c2[Si](C)(C)C(C)(C)C [DB-67, 7-t-butyldimethylsilyl-10-hydroxycamptothecin]",predominantly in the bilayer compartment
2,Camptothecin,predominantly in the bilayer compartment
